Test results as given in patent US12258326B2, “Pyrazole derivative and harmful organism-controlling agent” (KUMIAI CHEMICAL INDUSTRY CO., LTD., priority 2018, dated 2025).
Some results were stated once for a whole list of compounds, not compound by compound.

How the values were obtained:
Aphis gossypii = Aphis gossypii killing test; type: in vivo; conditions: active ingredient 500 ppm; dipped cucumber nursery plant inoculated with nymphs; after 3 days; 25° C.
Procedure: The water-dispersible powder prepared in accordance with Formulation example 2 was diluted in water so that the concentration of the active ingredient was 500 ppm. A nursery plant of cucumber preliminarily inoculated with nymphs of Aphis gossypii was dipped in this liquid agent, and air-dried. The nursery plant of cucumber after the treatment was placed in a thermostatic chamber at 25° C., and the number of live insects was counted after 3 days, and the insect mortality was determined by the calculation formula of numerical formula 1. The test was conducted singly.

Nilaparvata lugens = Nilaparvata lugens killing activity test; type: in vivo; conditions: active ingredient 500 ppm; dipped paddy; second instar larvae; after 6 days; 25° C.
Procedure: The water-dispersible powder prepared in accordance with Formulation example 2 was diluted in water so that the concentration of the active ingredient was 500 ppm. Paddy was dipped in this liquid agent, and then put into a plastic cup. Ten second instar larvae of Nilaparvata lugens were released in the plastic cup, and the cup was lidded, and placed in a thermostatic chamber at 25° C. After 6 days, the number of live insects was counted, and the insect mortality was determined by the calculation formula of numerical formula 1. The test was conducted singly.

Row | SMILES | insect mortality (Aphis gossypii) | insect mortality (Nilaparvata lugens)
1 | NC(=O)c1nn(-c2cccnc2)cc1-c1ccccc1 [A-0001] | ≥ 50% | –
2 | NC(=O)c1nn(-c2cccnc2)cc1-c1cccc(F)c1 [A-0003] | – | ≥ 50%
3 | NC(=O)c1nn(-c2cccnc2)cc1-c1ccc(F)cc1 [A-0004] | ≥ 50% | ≥ 50%
4 | NC(=O)c1nn(-c2cccnc2)cc1-c1ccccc1Cl [A-0005] | ≥ 50% | ≥ 50%
5 | NC(=O)c1nn(-c2cccnc2)cc1-c1cccc(Cl)c1 [A-0006] | ≥ 50% | –
6 | NC(=O)c1nn(-c2cccnc2)cc1-c1ccc(Cl)cc1 [A-0007] | ≥ 50% | ≥ 50%
7 | Cc1cccc(-c2cn(-c3cccnc3)nc2C(N)=O)c1 [A-0021] | ≥ 50% | ≥ 50%
8 | Cc1ccc(-c2cn(-c3cccnc3)nc2C(N)=O)cc1 [A-0022] | ≥ 50% | ≥ 50%
9 | CC(C)(C)c1ccccc1-c1cn(-c2cccnc2)nc1C(N)=O [A-0041] | – | ≥ 50%
10 | NC(=O)c1nn(-c2cccnc2)cc1-c1cccc(C(F)(F)F)c1 [A-0045] | ≥ 50% | ≥ 50%
11 | NC(=O)c1nn(-c2cccnc2)cc1-c1ccc(C(F)(F)F)cc1 [A-0046] | ≥ 50% | ≥ 50%
12 | C#Cc1ccccc1-c1cn(-c2cccnc2)nc1C(N)=O [A-0101] | ≥ 50% | ≥ 50%
13 | COc1ccccc1-c1cn(-c2cccnc2)nc1C(N)=O [A-0119] | ≥ 50% | ≥ 50%
14 | COc1cccc(-c2cn(-c3cccnc3)nc2C(N)=O)c1 [A-0120] | ≥ 50% | ≥ 50%
15 | COc1ccc(-c2cn(-c3cccnc3)nc2C(N)=O)cc1 [A-0121] | ≥ 50% | ≥ 50%
16 | CCOc1ccccc1-c1cn(-c2cccnc2)nc1C(N)=O [A-0122] | ≥ 50% | ≥ 50%
17 | CCOc1cccc(-c2cn(-c3cccnc3)nc2C(N)=O)c1 [A-0123] | ≥ 50% | ≥ 50%
18 | CCOc1ccc(-c2cn(-c3cccnc3)nc2C(N)=O)cc1 [A-0124] | ≥ 50% | ≥ 50%
19 | NC(=O)c1nn(-c2cccnc2)cc1-c1ccccc1OC(F)(F)F [A-0143] | ≥ 50% | –
20 | NC(=O)c1nn(-c2cccnc2)cc1-c1ccccc1OC(F)F [A-0146] | ≥ 50% | ≥ 50%
21 | CSc1cccc(-c2cn(-c3cccnc3)nc2C(N)=O)c1 [A-0177] | ≥ 50% | ≥ 50%
22 | NC(=O)c1nn(-c2cccnc2)cc1-c1cccc(SC(F)(F)F)c1 [A-0189] | ≥ 50% | ≥ 50%
23 | NC(=O)c1nn(-c2cccnc2)cc1-c1cccc(SC(F)(C(F)(F)F)C(F)(F)F)c1 [A-0198] | – | ≥ 50%
24 | CCOC(=O)c1ccccc1-c1cn(-c2cccnc2)nc1C(N)=O [A-0239] | – | ≥ 50%
25 | CSCc1ccccc1-c1cn(-c2cccnc2)nc1C(N)=O [A-0320] | ≥ 50% | ≥ 50%
26 | NC(=O)c1nn(-c2cccnc2)cc1-c1ccccc1OCc1ccccc1 [A-0347] | ≥ 50% | ≥ 50%

Row | SMILES | insect mortality (Aphis gossypii) | insect mortality (Nilaparvata lugens)
27 | N#Cc1ccccc1-c1cn(-c2cccnc2)nc1C(N)=O [A-0548] | – | ≥ 50%
28 | N#Cc1ccc(-c2cn(-c3cccnc3)nc2C(N)=O)cc1 [A-0550] | ≥ 50% | ≥ 50%
29 | NC(=O)c1nn(-c2cccnc2)cc1-c1c(F)cccc1Cl [A-0563] | ≥ 50% | ≥ 50%
30 | NC(=O)c1nn(-c2cccnc2)cc1-c1cc(C(F)(F)F)ccc1F [A-0582] | ≥ 50% | –
31 | NC(=O)c1nn(-c2cccnc2)cc1-c1c(Cl)cccc1Cl [A-0603] | ≥ 50% | ≥ 50%
32 | CCOc1ccc(C)cc1-c1cn(-c2cccnc2)nc1C(N)=O [A-0712] | ≥ 50% | ≥ 50%
33 | NC(=O)c1nn(-c2cccnc2)cc1-c1c(F)cccc1OC(F)(F)F [A-0733] | – | ≥ 50%
34 | Cc1cc(C#N)ccc1-c1cn(-c2cccnc2)nc1C(N)=O [A-1102] | ≥ 50% | ≥ 50%
35 | NC(=O)c1nn(-c2cccnc2)cc1-c1cccc2c1OCO2 [A-1134] | ≥ 50% | ≥ 50%
36 | COc1cc(C)c(-c2cn(-c3cccnc3)nc2C(N)=O)c(C)c1 [A-1147] | ≥ 50% | ≥ 50%
37 | COc1ccc(C)c(F)c1-c1cn(-c2cccnc2)nc1C(N)=O [A-1152] | ≥ 50% | –
38 | Cc1ccc(Cl)c(-c2cn(-c3cccnc3)nc2C(N)=O)c1F [A-1154] | – | ≥ 50%
39 | CCc1ccc(C)c(-c2cn(-c3cccnc3)nc2C(N)=O)c1 [A-1157] | ≥ 50% | –
40 | CCc1cccc(F)c1-c1cn(-c2cccnc2)nc1C(N)=O [A-1159] | – | ≥ 50%
41 | COCc1cccc(Cl)c1-c1cn(-c2cccnc2)nc1C(N)=O [A-1160] | ≥ 50% | –
42 | CCOCc1cccc(Cl)c1-c1cn(-c2cccnc2)nc1C(N)=O [A-1161] | ≥ 50% | ≥ 50%
43 | Cc1ccccc1-c1cn(-c2cccnc2)nc1C(=O)NO [A-2788] | – | ≥ 50%
44 | Cc1ccccc1-c1cn(-c2cccnc2)nc1C(=O)NC1CCOCC1 [A-3596] | ≥ 50% | ≥ 50%
45 | Cc1ccccc1-c1cn(-c2cccnc2)nc1C(=O)NCC#N [A-3798] | ≥ 50% | ≥ 50%
46 | Cc1ccccc1-c1cn(-c2cccnc2)nc1C(=O)NC1(C#N)CC1 [A-4000] | – | ≥ 50%
47 | Cc1ccccc1-c1cn(-c2cccnc2)nc1C(=O)NCO [A-4202] | ≥ 50% | ≥ 50%
48 | CCCc1ccccc1-c1cn(-c2cccnc2)nc1C(=O)NC(=S)OC [A-6022] | ≥ 50% | –
49 | Cc1ccccc1-c1cn(-c2cccnc2)nc1C(=O)NC(=S)N(C)C [A-6222] | – | ≥ 50%
50 | Cc1ccccc1-c1cn(-c2cccnc2)nc1C(=O)NS(C)(=O)=O [A-6424] | – | ≥ 50%
51 | Cc1ccccc1-c1cn(-c2cccnc2)nc1C(=O)NCC(N)=O [A-7232] | – | ≥ 50%
52 | Cc1ccccc1-c1cn(-c2cccnc2)nc1C(=O)NC=NO [A-7434] | ≥ 50% | ≥ 50%

Row | SMILES | insect mortality (Aphis gossypii) | insect mortality (Nilaparvata lugens)
53 | CCON=CNC(=O)c1nn(-c2cccnc2)cc1-c1ccccc1C [A-7636] | ≥ 50% | ≥ 50%
54 | Cc1ccccc1-c1cn(-c2cccnc2)nc1C(=O)N(C)C [A-8040] | ≥ 50% | ≥ 50%
55 | Cc1ccccc1-c1cn(-c2cccnc2)nc1C(=O)N(CC#N)CC#N [A-8242] | – | ≥ 50%
56 | Cc1ccccc1-c1cn(-c2cccnc2)nc1C(=O)N1CCOCC1 [A-8444] | – | ≥ 50%
57 | COc1cccc(F)c1-c1cn(-c2ccc[n+]([O-])c2)nc1C(N)=O [A-9435] | – | ≥ 50%
58 | NC(=O)c1nn(-c2cccnc2)cc1Cl [B-0001] | ≥ 50% | ≥ 50%
59 | NC(=O)c1nn(-c2cccnc2)cc1Br [B-0002] | ≥ 50% | –
60 | NC(=O)c1nn(-c2cccnc2)cc1-c1ccc2ccccc2c1 [B-0009] | ≥ 50% | –
61 | NC(=O)c1nn(-c2cccnc2)cc1-c1ccsc1 [B-0293] | ≥ 50% | –
62 | Cc1noc(C)c1-c1cn(-c2cccnc2)nc1C(N)=O [B-0453] | ≥ 50% | –
63 | COc1ncc(-c2cn(-c3cccnc3)nc2C(N)=O)c(OC)n1 [B-0459] | – | ≥ 50%
64 | CCOC(=O)c1nn(-c2cccnc2)cc1-c1cccc(F)c1 [C-0003] | ≥ 50% | –
65 | CCOC(=O)c1nn(-c2cccnc2)cc1-c1cccc(Cl)c1 [C-0006] | ≥ 50% | –
66 | CCOC(=O)c1nn(-c2cccnc2)cc1-c1ccc(Cl)cc1 [C-0007] | ≥ 50% | –
67 | CCOC(=O)c1nn(-c2cccnc2)cc1-c1cccc(C(F)(F)F)c1 [C-0045] | ≥ 50% | –
68 | CCOC(=O)c1nn(-c2cccnc2)cc1-c1ccc(OC)cc1 [C-0121] | – | ≥ 50%
69 | CCOC(=O)c1nn(-c2cccnc2)cc1-c1ccccc1OCC [C-0122] | ≥ 50% | –
70 | CCOC(=O)c1nn(-c2cccnc2)cc1-c1cccc(OCC)c1 [C-0123] | – | ≥ 50%
71 | CCOC(=O)c1nn(-c2cccnc2)cc1-c1ccc(OCC)cc1 [C-0124] | – | ≥ 50%
72 | CCOC(=O)c1nn(-c2cccnc2)cc1-c1cccc([S+](C)[O-])c1 (stereo not shown) [C-0183] | ≥ 50% | –
73 | CCOC(=O)c1nn(-c2cccnc2)cc1Br [D-0002] | ≥ 50% | –
74 | CCOC(=O)c1nn(-c2cccnc2)cc1-c1ccc2ccccc2c1 [D-0017] | – | ≥ 50%
75 | CCOC(=O)c1nn(-c2cccnc2)cc1-c1c(CC)noc1CC [D-0462] | – | ≥ 50%
76 | O=C(O)c1nn(-c2cccnc2)cc1-c1ccccc1C(F)(F)F [E-0044] | – | ≥ 50%
77 | CCOc1ccc(-c2cn(-c3cccnc3)nc2C(=O)O)cc1 [E-0124] | ≥ 50% | –
78 | O=C(O)c1nn(-c2cccnc2)cc1-c1ccccc1OC1CC1 [E-0152] | – | ≥ 50%
